Here are results for two substances from paper PMC6817842.

Amino acid sequences for entries named in this document (tags omitted).
UniProt P42582: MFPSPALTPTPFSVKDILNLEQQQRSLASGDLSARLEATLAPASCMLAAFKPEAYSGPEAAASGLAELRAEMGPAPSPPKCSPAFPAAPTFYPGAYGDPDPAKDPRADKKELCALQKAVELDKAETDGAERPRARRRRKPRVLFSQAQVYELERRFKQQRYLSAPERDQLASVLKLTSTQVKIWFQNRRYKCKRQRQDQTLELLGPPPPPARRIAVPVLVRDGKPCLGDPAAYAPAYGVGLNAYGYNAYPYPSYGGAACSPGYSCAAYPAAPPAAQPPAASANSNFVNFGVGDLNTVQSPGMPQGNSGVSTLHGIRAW
UniProt P30051: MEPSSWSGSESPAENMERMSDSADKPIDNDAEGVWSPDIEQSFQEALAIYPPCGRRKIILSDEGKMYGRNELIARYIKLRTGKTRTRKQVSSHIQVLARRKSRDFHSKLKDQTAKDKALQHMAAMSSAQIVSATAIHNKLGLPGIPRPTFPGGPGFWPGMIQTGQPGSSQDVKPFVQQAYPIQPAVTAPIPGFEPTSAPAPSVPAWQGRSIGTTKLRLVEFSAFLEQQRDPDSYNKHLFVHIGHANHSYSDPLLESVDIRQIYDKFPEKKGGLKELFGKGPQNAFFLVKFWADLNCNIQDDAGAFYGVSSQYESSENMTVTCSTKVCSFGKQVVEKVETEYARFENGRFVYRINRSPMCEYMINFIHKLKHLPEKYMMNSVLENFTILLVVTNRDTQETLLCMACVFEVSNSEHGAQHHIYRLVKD
UniProt Q8CFN5: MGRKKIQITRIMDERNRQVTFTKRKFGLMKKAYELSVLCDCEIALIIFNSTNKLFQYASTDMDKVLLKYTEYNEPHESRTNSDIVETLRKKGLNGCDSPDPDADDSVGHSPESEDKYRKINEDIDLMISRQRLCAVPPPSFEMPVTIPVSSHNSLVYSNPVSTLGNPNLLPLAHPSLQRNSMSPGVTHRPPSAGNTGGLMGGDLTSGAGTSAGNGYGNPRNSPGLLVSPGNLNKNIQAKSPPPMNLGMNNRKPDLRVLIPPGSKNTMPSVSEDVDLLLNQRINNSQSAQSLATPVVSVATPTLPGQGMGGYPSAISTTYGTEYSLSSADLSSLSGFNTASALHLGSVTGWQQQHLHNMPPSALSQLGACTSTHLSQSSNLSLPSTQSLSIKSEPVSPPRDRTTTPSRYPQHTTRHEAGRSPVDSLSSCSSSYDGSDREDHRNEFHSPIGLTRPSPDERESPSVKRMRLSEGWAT

Assay [1] addresses NKX2-5^fb (NKX2-5 with C-terminal FLAG and biotin acceptor peptide, knock-in allele) (mouse) (UniProt P42582). Kind of assay: pull-down; biotinylated knock-in TF captured on M280 streptavidin Dynabeads from 150 µg embryonic heart lysate in RIPA buffer, 4 h at 4 °C; beads washed with cold PBS; partners detected by capillary electrophoresis immunoassay (ProteinSimple Wes); called CoIP in the methods.

The target in assay [2] is TEAD1^fb (TEAD1 with C-terminal FLAG and biotin acceptor peptide, knock-in allele) (mouse) (UniProt P30051). Described as above.

Results are given in words; binding and its absence hold for the method and conditions named. Binding seen in cells or lysates may run through a third protein. Some binding calls cover weakened binding; strength is not graded here.

On to “MEF2C (endogenous) (from UniProt Q8CFN5 1-474)”, for which the binding result in assay [1] and in assay [2] was “binds” in each case.

Consider “NKX2-5 (endogenous) (from UniProt P42582 1-318)”, for which, in assay [2], the binding entry is “binds”.
